The text below walks through data of PMC4865633.

Protein sequences, listed by entry. Tags and fused reporters are not part of them. Lines headed by an entry give the natural chain unless they say otherwise; changes in a name come on top.
UniProt A9QM74: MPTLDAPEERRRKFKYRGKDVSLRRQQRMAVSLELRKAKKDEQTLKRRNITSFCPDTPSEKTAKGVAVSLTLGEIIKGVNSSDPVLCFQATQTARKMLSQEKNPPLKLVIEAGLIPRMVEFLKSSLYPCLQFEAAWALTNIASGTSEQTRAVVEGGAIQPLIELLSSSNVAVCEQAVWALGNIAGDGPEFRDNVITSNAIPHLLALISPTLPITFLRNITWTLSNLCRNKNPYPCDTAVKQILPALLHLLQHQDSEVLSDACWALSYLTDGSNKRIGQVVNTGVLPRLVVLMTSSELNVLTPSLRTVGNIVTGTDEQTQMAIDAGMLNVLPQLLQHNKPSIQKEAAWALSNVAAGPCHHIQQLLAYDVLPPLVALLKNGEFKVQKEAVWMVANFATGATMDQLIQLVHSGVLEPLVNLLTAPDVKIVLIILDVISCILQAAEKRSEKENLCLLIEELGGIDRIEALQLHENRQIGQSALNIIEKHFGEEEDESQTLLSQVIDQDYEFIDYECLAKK
UniProt O15131: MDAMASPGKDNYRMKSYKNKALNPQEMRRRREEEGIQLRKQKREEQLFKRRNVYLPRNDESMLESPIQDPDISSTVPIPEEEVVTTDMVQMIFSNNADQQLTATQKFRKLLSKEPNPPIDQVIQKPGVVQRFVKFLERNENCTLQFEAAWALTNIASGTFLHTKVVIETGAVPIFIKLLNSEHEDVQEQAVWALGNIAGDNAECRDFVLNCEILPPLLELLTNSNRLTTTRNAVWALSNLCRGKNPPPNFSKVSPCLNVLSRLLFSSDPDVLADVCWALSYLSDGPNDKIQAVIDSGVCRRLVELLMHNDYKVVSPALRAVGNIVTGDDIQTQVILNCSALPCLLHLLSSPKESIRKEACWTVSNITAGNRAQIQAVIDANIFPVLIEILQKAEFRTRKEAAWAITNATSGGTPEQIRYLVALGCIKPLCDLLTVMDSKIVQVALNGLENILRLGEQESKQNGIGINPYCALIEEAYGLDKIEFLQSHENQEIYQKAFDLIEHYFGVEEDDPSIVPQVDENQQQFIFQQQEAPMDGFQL

No constants are given. Whether binding was seen depends on the method and setting. Binding calls can cover weak binding; strength is not graded here.

The target in the test is GST-h-importin α8 (KPNA7) (human) (UniProt A9QM74). Kind of test: pull-down; GST fusions immobilized on GSH beads, 100 pmol FLAG-importin α in 200 μL transport buffer (20 mM HEPES pH 7.3, 110 mM potassium acetate, 2 mM magnesium acetate, 1 mM EGTA, 1 mM DTT) with 0.1% Triton X-100, 4 °C, 1 h; western blot with anti-FLAG and anti-GST (Fig. 1A); both purified. For orientation: A western blot detects proteins with antibodies after separation by electrophoresis.

Consider “FLAG-h-importin α6 (KPNA5) (from UniProt O15131)”, for which the binding entry is “binds”.

In the case of “FLAG-h-importin α7 (KPNA6) (from UniProt O60684)”, the binding entry was “binds”.
